# Data from the supplement of paper PMC8728848.
# Some of the results follow.
# B1: NK11 (Sus scrofa) (peptide)
# chain: KISKRILTGKK
# Assays:
# Test in all cases: glycan array binding signal (z-score within array); higher = stronger binding
# Details in all cases: glycan notation: IUPAC condensed, linker removed
# [1] = molecular target: Gal(b1-3)GalNAc(b1-3)Gal
# Procedure, shortened: (§1)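 From the Consortium for Functional Glycomics database, 3228 arrays were curated, keeping only those whose protein sequence was available. Binding is given as a within-array Z-score averaged across arrays sharing a protein sequence and across linkers. Negative Z-scores can be read as non-binding.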
# [2] = molecular target: Gal(b1-3)GalNAc(b1-3)Gal(a1-4)Gal(b1-4)Glc
# Procedure, shortened: as §1
# [3] = molecular target: Gal(b1-3)GalNAc(b1-4)Gal(b1-4)Glc
# Procedure, shortened: as §1
# [4] = molecular target: Gal(b1-3)GalNAc(b1-4)[Neu5Ac(a2-3)]Gal(b1-4)Glc
# Procedure, shortened: as §1
# [5] = molecular target: Gal(b1-3)GlcNAc
# Procedure, shortened: as §1
# [6] = molecular target: Gal(b1-3)GlcNAc(a1-3)Gal(b1-4)GlcNAc
# Procedure, shortened: as §1
# [7] = molecular target: Gal(b1-3)GlcNAc(a1-6)Gal(b1-4)GlcNAc
# Procedure, shortened: as §1
# [8] = molecular target: Gal(b1-3)GlcNAc(b1-2)Man
# Procedure, shortened: as §1
# [9] = molecular target: Gal(b1-3)GlcNAc(b1-2)Man(a1-3)[Gal(b1-3)GlcNAc(b1-2)Man(a1-6)]Man(b1-4)GlcNAc(b1-4)GlcNAc
# Procedure, shortened: as §1
# [10] = molecular target: Gal(b1-3)GlcNAc(b1-2)Man(a1-3)[Gal(b1-3)GlcNAc(b1-2)Man(a1-6)]Man(b1-4)GlcNAc(b1-4)[Fuc(a1-6)]GlcNAc
# Procedure, shortened: as §1
# [11] = molecular target: Gal(b1-3)GlcNAc(b1-2)Man(a1-3)[GlcNAc(b1-4)][Gal(b1-3)GlcNAc(b1-2)Man(a1-6)]Man(b1-4)GlcNAc(b1-4)GlcNAc
# Procedure, shortened: as §1
# [12] = molecular target: Gal(b1-3)GlcNAc(b1-2)[Gal(b1-3)GlcNAc(b1-6)]Man(a1-6)[Gal(b1-3)GlcNAc(b1-2)Man(a1-3)]Man(b1-4)GlcNAc(b1-4)GlcNAc
# Procedure, shortened: as §1
# [13] = molecular target: Gal(b1-3)GlcNAc(b1-3)Gal(b1-3)GlcNAc
# Procedure, shortened: as §1
# [14] = molecular target: Gal(b1-3)GlcNAc(b1-3)Gal(b1-4)Glc
# Procedure, shortened: as §1
# [15] = molecular target: Gal(b1-3)GlcNAc(b1-3)Gal(b1-4)GlcNAc
# Procedure, shortened: as §1
# [16] = molecular target: Gal(b1-3)GlcNAc(b1-3)Gal(b1-4)GlcNAc(b1-2)Man(a1-3)[Gal(b1-3)GlcNAc(b1-3)Gal(b1-4)GlcNAc(b1-2)Man(a1-6)]Man(b1-4)GlcNAc(b1-4)GlcNAc
# Procedure, shortened: as §1
# [17] = molecular target: Gal(b1-3)GlcNAc(b1-3)Gal(b1-4)GlcNAc(b1-2)[Gal(b1-3)GlcNAc(b1-3)Gal(b1-4)GlcNAc(b1-6)]Man(a1-6)[Gal(b1-3)GlcNAc(b1-3)Gal(b1-4)GlcNAc(b1-2)Man(a1-3)]Man(b1-4)GlcNAc(b1-4)[Fuc(a1-6)]GlcNAc
# Procedure, shortened: as §1
# [18] = molecular target: Gal(b1-3)GlcNAc(b1-3)Gal(b1-4)GlcNAc(b1-3)Gal(b1-4)GlcNAc(b1-2)[Gal(b1-3)GlcNAc(b1-3)Gal(b1-4)GlcNAc(b1-3)Gal(b1-4)GlcNAc(b1-6)]Man(a1-6)[Gal(b1-3)GlcNAc(b1-3)Gal(b1-4)GlcNAc(b1-3)Gal(b1-4)GlcNAc(b1-2)Man(a1-3)]Man(b1-4)GlcNAc(b1-4)[Fuc(a1-6)]GlcNAc
# Procedure, shortened: as §1
# [19] = molecular target: Gal(b1-3)GlcNAc(b1-3)Gal(b1-4)GlcNAc(b1-6)[Gal(b1-3)GlcNAc(b1-3)]Gal(b1-4)Glc
# Procedure, shortened: as §1
# [20] = molecular target: Gal(b1-3)GlcNAc(b1-3)Gal(b1-4)[Fuc(a1-3)]GlcNAc
# Procedure, shortened: as §1
# [21] = molecular target: Gal(b1-3)GlcNAc(b1-3)Gal(b1-4)[Fuc(a1-3)]GlcNAc(b1-6)[Gal(b1-3)GlcNAc(b1-3)]Gal(b1-4)Glc
# Procedure, shortened: as §1
# [22] = molecular target: Gal(b1-3)GlcNAc(b1-3)GalNAc
# Procedure, shortened: as §1
# [23] = molecular target: Gal(b1-3)GlcNAc(b1-6)Gal(b1-4)GlcNAc
# Procedure, shortened: as §1
# [24] = molecular target: Gal(b1-3)GlcNAc(b1-6)GalNAc
# Procedure, shortened: as §1
# [25] = molecular target: Gal(b1-3)GlcNAc(b1-6)[Gal(b1-3)]GalNAc
# Procedure, shortened: as §1
# [26] = molecular target: Gal(b1-3)GlcNAc6S
# Procedure, shortened: as §1
# [27] = molecular target: Gal(b1-3)[Fuc(a1-4)]GlcNAc
# Procedure, shortened: as §1
# [28] = molecular target: Gal(b1-3)[Fuc(a1-4)]GlcNAc(b1-2)Man
# Procedure, shortened: as §1
# [29] = molecular target: Gal(b1-3)[Fuc(a1-4)]GlcNAc(b1-2)Man(a1-3)[Gal(b1-3)[Fuc(a1-4)]GlcNAc(b1-2)Man(a1-6)]Man(b1-4)GlcNAc(b1-4)GlcNAc
# Procedure, shortened: as §1
# [30] = molecular target: Gal(b1-3)[Fuc(a1-4)]GlcNAc(b1-2)Man(a1-3)[Gal(b1-3)[Fuc(a1-4)]GlcNAc(b1-2)Man(a1-6)]Man(b1-4)GlcNAc(b1-4)[Fuc(a1-6)]GlcNAc
# Procedure, shortened: as §1
binder,measurement,setting,value
B1,glycan array binding signal (z-score),[1],-0.081
same,glycan array binding signal (z-score),[2],0.088
same,glycan array binding signal (z-score),[3],-0.598
same,glycan array binding signal (z-score),[4],0.499
same,glycan array binding signal (z-score),[5],-0.818
same,glycan array binding signal (z-score),[6],1.09
same,glycan array binding signal (z-score),[7],-0.484
same,glycan array binding signal (z-score),[8],1.06
same,glycan array binding signal (z-score),[9],0.324
same,glycan array binding signal (z-score),[10],-0.247
same,glycan array binding signal (z-score),[11],0.142
same,glycan array binding signal (z-score),[12],0.083
same,glycan array binding signal (z-score),[13],-0.639
same,glycan array binding signal (z-score),[14],-0.986
same,glycan array binding signal (z-score),[15],-1.08
same,glycan array binding signal (z-score),[16],-0.818
same,glycan array binding signal (z-score),[17],1
same,glycan array binding signal (z-score),[18],-0.607
same,glycan array binding signal (z-score),[19],0.691
same,glycan array binding signal (z-score),[20],-0.558
same,glycan array binding signal (z-score),[21],-0.485
same,glycan array binding signal (z-score),[22],-0.602
same,glycan array binding signal (z-score),[23],0.211
same,glycan array binding signal (z-score),[24],0.832
same,glycan array binding signal (z-score),[25],-1.61
same,glycan array binding signal (z-score),[26],0.877
same,glycan array binding signal (z-score),[27],-0.439
same,glycan array binding signal (z-score),[28],0.171
same,glycan array binding signal (z-score),[29],-1.13
same,glycan array binding signal (z-score),[30],-0.953

# Quoted from the entries so far for reference:
binder,measurement,setting,value
B1,glycan array binding signal (z-score),[27],-0.439
same,glycan array binding signal (z-score),[28],0.171
